# From patent publication US9075281B2, “Colored composition and image display structure” (FUJIFILM CORPORATION, priority 2011, dated 2015)
# Assay: Electrowetting test cell evaluation (responsiveness, back flow, OD value)
# Conditions: dye concentration 20% by mass; for Area Contraction Ratio (%) / Response Time: DC 100V; for Area Contraction Ratio (%): 100% indicates a non-contracted state; for Response Time: time until most contracted state; for OD Value: at maximum absorption wavelength; for Back Flow Ratio (%): voltage-applied state maintained for 5 seconds
# Procedure: A glass substrate (10 mm×10 mm) on which an indium tin oxide (ITO) film having a thickness of 100 nm was formed as a transparent electrode was prepared. On the surface of the ITO film, a fluoropolymer (tradename: CYTOP manufactured by Asahi Glass Co., Ltd., model CTL-809M) was coated in a thickness of 600 nm, thereby forming a fluoropolymer layer as a hydrophobic insulating film. Subsequently, a picture frame-shaped silicone rubber wall left after cutting out a 8 mm×8 mm×50 μm-sized piece from the central portion of a 1 cm×1 cm-sized silicone rubber (a sealing material having a thickness of 50 μm; SILIUS (tradename) manufactured by Fuso Rubber Co., Ltd.) was placed on the fluoropolymer layer, thereby forming a display area. A colored composition was injected, in a thickness of 4 μm, into the space enclosed by the silicone rubber wall. Onto the injected colored composition, ethyleneglycol (hydrophilic liquid) was further injected in a thickness of 46 μm. Another sheet of the glass plate equipped with the ITO film was further placed thereon such that the ITO film thereof faced the colored composition and the ethyleneglycol, and the glass plate was fixed. In this way, an electrowetting test cell having a structure illustrated in FIG. 1 was prepared.
# A DC voltage of 100V was applied between the ITO films (transparent electrodes) of the two ITO-equipped glass substrates, such that a minus voltage was applied to the ITO electrode on a side on which the fluoropolymer layer (hydrophobic insulating film) was formed. In this state, the display cell (display cell 30 shown in FIG. 2) was observed, and it was confirmed that the colored composition moved on the surface of the fluoropolymer layer in one direction, and that the area of the region on the fluoropolymer layer that was covered by the colored composition decreased.
# The responsiveness (the response time and the area contraction ratio described below) of the colored composition, and the extent of back flow phenomenon when the voltage-applied state was maintained (the back flow ratio described below) were evaluated.
# The decrease of the area due to the voltage application was evaluated based on the area contraction ratio (%) calculated according to the following Equation (1). The extent of back flow phenomenon was evaluated based on the back flow ratio (%) calculated according to the following Equation (2). a) Response time [msec]=the time elapsed from the initiation of the voltage application until the colored composition reaches the most contracted state b) Area contraction ratio (%)=(the area of the colored composition in the most contracted state)/(the area of the colored composition before the voltage application)×100 (Equation (1)) c) Back flow ratio (%)=(the area of the colored composition when the voltage-applied state has been maintained for 5 seconds)/(the area of the colored composition in the most contracted state)×100 (Equation (2))
# In regard to the OD value (image density), each dye was measured and evaluated with respect to OD value at its maximum absorption wavelength, using a spectral radiometer SR-3 manufactured by Topcon Technohouse Corporation.
Compound,Area Contraction Ratio (%),Response Time,OD Value,Back Flow Ratio (%)
CCCCC(CC)CN(CC(CC)CCCC)c1ccc(C=C2C(=O)ON=C2C(C)CC)c(C)c1 (centres unmarked) [D1-1],18%,less than 200 msec,1.3,130%
CCCCC(CC)COc1cc(N(CC(CC)CCCC)CC(CC)CCCC)ccc1N=C1C(=O)N(CC(CC)CCCC)N=C1C (centres unmarked) [D6-1],16%,less than 200 msec,1.8,110%
CCCCC(CC)CNC(=O)c1cc(N(CC(CC)CCCC)CC(CC)CCCC)ccc1/N=C1/C(CC)=Nn2nc(C(C)C)nc21 (centres unmarked) [D8-9],15%,less than 200 msec,2.0,110%
CCCCC(CC)CN(CC(CC)CCCC)c1ccc(/N=C2\C(C#N)=C(C(=O)OC3C(C(C)(C)C)CC(C)CC3C(C)(C)C)c3nc(C(C)(C)C)nn32)cc1 (centres unmarked) [D9-5],16%,less than 200 msec,1.6,110%
CCCCC(CC)CNC(=O)c1cc(N(CC(CC)CCCC)CC(CC)CCCC)ccc1/N=C1\C(C#N)=C(C(=O)OC2C(C(C)(C)C)CC(C)CC2C(C)(C)C)c2nc(C(C)(C)C)nn21 (centres unmarked) [D9-6],16%,less than 200 msec,1.7,110%
